Source: PubChem BioAssay AID504808 (Drosophila RNAi Screening Center, 2011)
The screen tested about 21,000 reagents; this is an unselected part of those that have a named target and a result. Of all reagents, 18 (0.084%) got an active call. 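Raw counts without plate normalisation, one of two replicates; the ratio scores behind the calls were not deposited.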 Reagents against one gene are numbered here. A plus sign joins genes that one reagent is predicted to hit. No sequences are given here. The record does not give: the amount of reagent, the time to read-out.

Aim: 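Fly genes required to hold E2F transcription in check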 (primary screen)
Cell system: Drosophila S2 cells
Knock-down reagent: long dsRNA against Drosophila genes
Measurement: 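Dual luciferase plate measurements; E2F-specific signal taken as firefly over Renilla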
Scale: E2F firefly: higher = more E2F reporter activity; Renilla normaliser: higher = more normaliser reporter signal
Active means: 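a knock-down counted as active when the firefly/Renilla E2F signal rose above 50%, a threshold chosen arbitrarily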

no.	target gene	dsRNA no.	E2F firefly, rep 1	Renilla normaliser, rep 1	Call
1	sowi	1	1.26e5	6897	inactive
2	CG42748	1	98441	4340	inactive
3	CG42748	2	84951	3574	inactive
4	CG42748	3	1.17e5	4097	inactive
5	Hipk	1	1.37e5	3918	inactive
6	Hipk	2	74963	3357	inactive
7	CG14607	1	1.01e5	6062	inactive
8	CG31560	1	1.32e5	5838	inactive
9	PolE1	1	81527	5550	inactive
10	brun	1	86775	3938	inactive
11	Prp39	1	1489	756	inactive
12	Sec10	1	68177	3073	inactive
13	SelG	1	8691	832	inactive
14	MED18	1	1.26e5	6452	inactive
15	CG6321	1	75639	3534	inactive
16	Dmtn	1	71538	3262	inactive
17	Ser12	1	1.63e5	6276	inactive
18	CG4835	1	1.02e5	4365	inactive
19	CG14062	1	1.20e5	6465	inactive
20	ppk30	1	1.30e5	6917	inactive
21	Vps36	1	1.24e5	6757	inactive
22	Golgin104	1	74062	3157	inactive
23	wisp	1	7898	616	inactive
24	JhI-21	1	73561	3428	inactive
25	CG42299 + CG42300	1	2.30e5	6415	inactive
26	CG42299 + CG42300	2	2.33e5	7230	inactive
27	ZIPIC	1	1639	896	inactive
28	CG13460	1	1.50e5	8388	inactive
29	CG30486	1	1.11e5	4481	inactive
30	Nadk1b	1	1.17e5	4795	inactive
31	Nadk1b	2	2796	204	inactive
32	Nadk1b	3	99968	4508	inactive
33	CG14100	1	1.35e5	6737	inactive
34	Ir60b	1	1.10e5	4875	inactive

Already shown: entries from further up.
no.	target gene	dsRNA no.	E2F firefly, rep 1	Renilla normaliser, rep 1	Call
2	CG42748	1	98441	4340	inactive
3	CG42748	2	84951	3574	inactive
4	CG42748	3	1.17e5	4097	inactive
5	Hipk	1	1.37e5	3918	inactive
6	Hipk	2	74963	3357	inactive
